## Assay results

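Malaria parasite (P. falciparum) lines kept in red blood cells; parasite DNA is measured by SYBR Green fluorescence after lysis, 72 h after compound addition.
Each compound was titrated across a series from about 0.000037 to 29 µM.
The number is the fitted AC50, the concentration giving a half-maximal change in signal; a lower value means higher potency, whether the curve shows a decrease or an increase.
Calls follow the curve class and fit quality: every row here is inconclusive, covering signal-raising curves and weak, poorly fitted, partial or highest-dose-only inhibition curves.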

Values are in µM.
All entries here are filed as inconclusive.
Only part of the assay is shown, chiefly results filed as inconclusive.
Potencies fitted to partial, single-point or poorly fitting curves are rough.
The first word of each remark tells which way the curve ran; it can be opposite to the aim of the assay.

CN(C)CCN1C(=O)c2ccccc2N(C)c2ccccc21 [CP247] read fitted potency 7.08 µM (inhibitor, partial curve). Result for CN(C)CCN1C(=O)c2ccccc2N(C)c2ccccc21 [CP325] was fitted potency 19.01 µM (inhibitor, single point). CN(C)CCN1C(=O)c2ccccc2N(C)c2ccccc21 [ATS189] read fitted potency 7.08 µM (inhibitor, partial curve). CN(C)CCN1C(=O)c2ccccc2N(C)c2ccccc21 [CP194] gave fitted potency 16.94 µM (inhibitor, single point). For CN(C)CCN1C(=O)c2ccccc2N(C)c2ccccc21 [CP252] the result was fitted potency 11.22 µM (inhibitor, single point).

With CN(C)CCN1C(=O)c2ccccc2N(C)c2ccccc21 [DFO2036] the assay gave fitted potency 12.59 µM (inhibitor, partial curve). CN(C)CCN1C(=O)c2ccccc2N(C)c2ccccc21 [TAB113] read fitted potency 12.59 µM (inhibitor, single point). For CN(C)CCN1C(=O)c2ccccc2N(C)c2ccccc21 [CP260] the result was fitted potency 5.623 µM (inhibitor, partial curve). With CN(C)CCN1C(=O)c2ccccc2N(C)c2ccccc21 [CP256] the assay gave fitted potency 10 µM (inhibitor, partial curve). CN(C)CCN1C(=O)c2ccccc2N(C)c2ccccc21 [CP211] gave fitted potency 21.33 µM (inhibitor, single point).

Result for CN(C)CCN1C(=O)c2ccccc2N(C)c2ccccc21 [CP291] was fitted potency 16.94 µM (inhibitor, single point). CN(C)CCN1C(=O)c2ccccc2N(C)c2ccccc21 [PC49] gave fitted potency 17.78 µM (inhibitor, single point). With CN(C)CCN1C(=O)c2ccccc2N(C)c2ccccc21 [CP203] the assay gave fitted potency 15.1 µM (inhibitor, single point). Result for CN(C)CCN1C(=O)c2ccccc2N(C)c2ccccc21 [CP192] was fitted potency 19.01 µM (inhibitor, single point). CN(C)CCN1C(=O)c2ccccc2N(C)c2ccccc21 [CP238] gave fitted potency 11.22 µM (inhibitor, partial curve).

Result for CN(C)CCN1C(=O)c2ccccc2N(C)c2ccccc21 [DIV17] was fitted potency 19.01 µM (inhibitor, partial curve). For C(=C\c1ccncc1)/c1ccccc1 [ICS] the result was fitted potency 17.78 µM (inhibitor, single point). With C(=C\c1ccncc1)/c1ccccc1 [HB3] the assay gave fitted potency 19.95 µM (inhibitor, single point). For C(=C\c1ccncc1)/c1ccccc1 [CP262] the result was fitted potency 13.46 µM (activator, partial curve, poor fit). With C(=C\c1ccncc1)/c1ccccc1 [ECU] the assay gave fitted potency 11.22 µM (inhibitor, single point).

With C(=C\c1ccncc1)/c1ccccc1 [CP291] the assay gave fitted potency 8.492 µM (inhibitor, partial curve). For C(=C\c1ccncc1)/c1ccccc1 [P93_24] the result was fitted potency 10 µM (inhibitor, single point). For O=C1CC2(CCCC2)CC(=O)N1CCCCN1CCN(c2ncccn2)CC1 [DIV14] the result was fitted potency 8.492 µM (inhibitor, partial curve). With O=C1CC2(CCCC2)CC(=O)N1CCCCN1CCN(c2ncccn2)CC1 [ECU] the assay gave fitted potency 14.13 µM (inhibitor, single point).

The last 2 entries again:

{"smiles": "O=C1CC2(CCCC2)CC(=O)N1CCCCN1CCN(c2ncccn2)CC1", "tested on / at": "DIV14", "fitted potency (µM)": "8.492", "curve": "inhibitor, partial curve"}
{"smiles": "O=C1CC2(CCCC2)CC(=O)N1CCCCN1CCN(c2ncccn2)CC1", "tested on / at": "ECU", "fitted potency (µM)": "14.13", "curve": "inhibitor, single point"}

Data taken from PubChem BioAssay AID504749, deposited by NCATS (2011).